The list shows a part of the results.

Protein sequences, listed by entry. Tags and fused reporters are not part of them.
UniProt Q0JBA9, entry or part of it: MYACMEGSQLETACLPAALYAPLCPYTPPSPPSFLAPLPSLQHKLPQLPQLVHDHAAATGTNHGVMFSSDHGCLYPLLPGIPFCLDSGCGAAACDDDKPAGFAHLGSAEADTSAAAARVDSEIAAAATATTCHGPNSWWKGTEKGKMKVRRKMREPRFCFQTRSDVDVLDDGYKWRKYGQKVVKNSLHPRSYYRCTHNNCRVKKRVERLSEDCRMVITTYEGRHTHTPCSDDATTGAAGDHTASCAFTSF

The values that follow come from publication PMC7819943, “Rice protein-binding microarrays: a tool to detect cis-acting elements near promoter regions in rice”.

The target in this assay is OsWRKY34 (Oryza sativa, UniProt Q0JBA9 1-250). The assay is described as follows: protein-binding microarray (RPBM); PBS, 2% BSA, 51.3 ng/ul salmon testes DNA, 50 uM zinc acetate, 200 nM TF, 25 C, 1 h; high values mean tight binding. To be noted: protein: recombinant; tags: N-terminal polyhistidine and DsRed monomer fusion (pET32a); label: CyDye5-dUTP incorporated in the synthesized complementary strand; 3' TTTTT single-stranded linker to array surface; dsDNA, one strand shown. A digest of the protocol: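 Binding signal is defined as the fluorescence intensity of each feature in arbitrary units, read on an Axon 4000B scanner. Transcription factors with N-terminal polyhistidine and DsRed fusions came from E. coli BL21-CodonPlus and were purified on Ni–NTA. They were incubated at 200 nM for 1 h at 25 °C on a custom Agilent array that had been made double-stranded with Cy5-dUTP, with 50 µM zinc acetate present, and the array was washed.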
“TTGTTGAATTTGCTATTATTATTTTTCGCTTCCATAATACCGGAGTCACCTAGTGCAG”: the binding signal was 9250 fluorescence intensity (a.u.).

With “CAATGTGGTCACGTGAATTCTCTCTGTCAGTTTTGATGTGCGGAGTCACCTAGTGCAG”, the binding signal is 9180 fluorescence intensity (a.u.). For the sequence “AGTTCTGTTGCAAGTACTCTTGCCGGCGTCTTGTCCACACCGGAGTCACCTAGTGCAG”, the binding signal is 8960 fluorescence intensity (a.u.). As for “TGAAGCATGTGGTGGGCATTTTCGTCTTTCTCGAATTCATCGGAGTCACCTAGTGCAG”, the figure is 9980 fluorescence intensity (a.u.); as for “CCAATCCGCGCAATCCCCGCCTCCGCGATCACCAAATCCGCGGAGTCACCTAGTGCAG”, 8340 fluorescence intensity (a.u.); as for “ACAGAACGAACCACCTATACGTACGTTTTCTCTCTTTTGACGGAGTCACCTAGTGCAG”, 8040 fluorescence intensity (a.u.). For the sequence “TAGTTGTTGACAATTGCATATTAGTTGCACCATTATATATCGGAGTCACCTAGTGCAG”, the binding signal is 8400 fluorescence intensity (a.u.). For “GCCCCGCCGCCGCACACCATCACCGTCCTCGAAATGTCGACGGAGTCACCTAGTGCAG”, the binding signal is 8150 fluorescence intensity (a.u.). “AACGTACGCACATACACACCCCTTACGAATACACACACGCCGGAGTCACCTAGTGCAG”: the binding signal is 8100 fluorescence intensity (a.u.). As for “ACTGTCTTAAATTACTGCTGCAGTTAGGCACACATCGTTTCGGAGTCACCTAGTGCAG”, the figure is 8930 fluorescence intensity (a.u.). Turning to “GTTCGAGTATAAGCTTTTTTTTGGTCAATTGTATTCATCTCGGAGTCACCTAGTGCAG”, the binding signal was 9450 fluorescence intensity (a.u.).

In the case of “CTTGTTGCAGGCCAAATCTTTCTTCATTTTTGGAATTAATCGGAGTCACCTAGTGCAG”, the binding signal was 8290 fluorescence intensity (a.u.).

“TTGTTCGGTTAGATTATGGGGATTTTTTTTCCTTTTCTTTCGGAGTCACCTAGTGCAG”: the binding signal was 9160 fluorescence intensity (a.u.).

For the sequence “TGTATATAGCAAGCTTCGGTTACTCGCATGTTCTTATTTACGGAGTCACCTAGTGCAG”, the binding signal is 8200 fluorescence intensity (a.u.). The result for “ACATCTGCTTCCCAGCATCCTGCAACTTTGGTTATAAGGTCGGAGTCACCTAGTGCAG” reads 8150 fluorescence intensity (a.u.).

For “TTTTCCAGATCAGATGTCTCTCTTGCCTGCACACGCGTTCCGGAGTCACCTAGTGCAG”, the binding signal is 8640 fluorescence intensity (a.u.).

As to “CATTAGCTAGCTAGCCTCTCCAATCATTTACAGATTAGTTCGGAGTCACCTAGTGCAG”, the binding signal is 8400 fluorescence intensity (a.u.).

For “TTTTTGTTGACTAAAGACAAATGTTGTGTACGCGTAAGTACGGAGTCACCTAGTGCAG”, the binding signal is 8770 fluorescence intensity (a.u.). As for “CACCCTCAATTCAATGGATCACTTAGTTTATTGGAAATCTCGGAGTCACCTAGTGCAG”, the binding signal was 8530 fluorescence intensity (a.u.). As for “GGTTGACTATTGCTGTGGACCTGCAAGTGTTAGGAGTACTCGGAGTCACCTAGTGCAG”, the figure is 8100 fluorescence intensity (a.u.).

“GGGTGGTGGTGCTTATGAAGCGAGCGCGCGACACGCGAGGCGGAGTCACCTAGTGCAG”: the binding signal is 8620 fluorescence intensity (a.u.). The result for “TATCCAAATTTCCAAACTGCTGCTCCTACTTGCTCTCTCCCGGAGTCACCTAGTGCAG” reads 8520 fluorescence intensity (a.u.); that for “AATAGCCCACCACAGGCTGGCATCCTTATCTTCTCCCTCTCGGAGTCACCTAGTGCAG”, 8050 fluorescence intensity (a.u.). As for “GTCCAACCAAACGCGCACCCACCAACGCCACCCGAAGCTTCGGAGTCACCTAGTGCAG”, the figure is 11500 fluorescence intensity (a.u.). On to “TTAGGGCGGCAGGGGCTATTTCTGTAATTTTTTTTTTTTGCGGAGTCACCTAGTGCAG”, for which the binding signal is 12800 fluorescence intensity (a.u.). The result for “CTCCTCTTCCTCGCCGGCGGCGGTCGCCTCTGAGACCGCTCGGAGTCACCTAGTGCAG” reads 8670 fluorescence intensity (a.u.).

As for “GCCTCCTCCTCCCAATAGTGAGTTTTTCGATCTCTTTTTTCGGAGTCACCTAGTGCAG”, the binding signal was 8210 fluorescence intensity (a.u.). As for “GAACCGTCCGGGCCTCTAACATCAGCCCATGTATCCATCGCGGAGTCACCTAGTGCAG”, the figure is 9280 fluorescence intensity (a.u.); as for “GCCATTTCGCCATTTCGTCGAGAGGTTGCTGTGCCAGTCACGGAGTCACCTAGTGCAG”, 9600 fluorescence intensity (a.u.). As for “TTTGGCAACACTTTTATATTTTGGTCGTTCTTAGGTGATTCGGAGTCACCTAGTGCAG”, the binding signal is 8950 fluorescence intensity (a.u.). As for “CACTGACTCCTCCTCACTTCGCATTGATTCGATCACTCTGCGGAGTCACCTAGTGCAG”, the figure is 9870 fluorescence intensity (a.u.). The result for “ATTCAGCTCTGAAGTGAAAATACACGCGCATCTGAATTTCCGGAGTCACCTAGTGCAG” reads 8150 fluorescence intensity (a.u.).

On to “TTCACACCACACCAACATTCGCTAGCTCACTCACTCTACCCGGAGTCACCTAGTGCAG”, for which the binding signal was 8790 fluorescence intensity (a.u.). Take “ACACCTACATATACACCACTCTGCCCTTTACGCCCGGGGACGGAGTCACCTAGTGCAG”: the binding signal was 8270 fluorescence intensity (a.u.). As for “GGCCTCTTATATAGGTGGGATGCACTGTGAGGAAAATTTTCGGAGTCACCTAGTGCAG”, the figure is 8480 fluorescence intensity (a.u.); as for “ATGCCTTTCTTGCCTTCCATGTTTCTTAAGCATAACTTCTCGGAGTCACCTAGTGCAG”, 13000 fluorescence intensity (a.u.); as for “GTTTAACCATTCATTTTATTCAATTTTTTATGTAAATATACGGAGTCACCTAGTGCAG”, 8290 fluorescence intensity (a.u.). As for “AGGGGTCTCTTCTTTTACTTTTGCTTACTTAGTTAAAATTCGGAGTCACCTAGTGCAG”, the figure is 9570 fluorescence intensity (a.u.). The result for “GAGCGCCTCATCATCCGCCTGCACGCCGCCCTCGGCAACACGGAGTCACCTAGTGCAG” reads 10200 fluorescence intensity (a.u.).

On to “CTTCATACAGAGAAACAGGAATAGAGGCGAGGGGTGGGTTCGGAGTCACCTAGTGCAG”, for which the binding signal is 8300 fluorescence intensity (a.u.).

For “AATTTTAGGCCACATTGCATTATGTATAGTATGTCTTCTACGGAGTCACCTAGTGCAG”, the binding signal was 10100 fluorescence intensity (a.u.). As for “TTTTTCTTTTTATAAAATCATTTTAACTTTGTTTATTTCTCGGAGTCACCTAGTGCAG”, the figure is 8070 fluorescence intensity (a.u.); as for “TGTCGTCGACGACGTCGTTGATCCTGCGTCTTGCATTCTTCGGAGTCACCTAGTGCAG”, 9550 fluorescence intensity (a.u.). The result for “TTGACTTTTTAGCACATGTTTGACCGTTCGTCTTATTCAACGGAGTCACCTAGTGCAG” reads 8480 fluorescence intensity (a.u.). Regarding “TAAAACTAATACTACTTTTGATCATGCTCGGTCCTGAATTCGGAGTCACCTAGTGCAG”, the binding signal is 8890 fluorescence intensity (a.u.). Regarding “TAATATTATTGGTTCTCATCTTGACTTTTATCACCAGCTTCGGAGTCACCTAGTGCAG”, the binding signal is 12000 fluorescence intensity (a.u.). As for “ACCTGAGCCTACTATTCAAAGCACATCCATCCTTGGCAATCGGAGTCACCTAGTGCAG”, the figure is 9540 fluorescence intensity (a.u.).

For “ATTATCTTATGTTTTTGTACTTCTAGAACCCATACTACTTCGGAGTCACCTAGTGCAG”, the binding signal is 11000 fluorescence intensity (a.u.).

As for “CGTTTGACCATTTTTCTTATTCAAAAATTTTGTACAAATACGGAGTCACCTAGTGCAG”, the binding signal was 10300 fluorescence intensity (a.u.).

As to “AATCTCACGCACTGTCTCTCGTTCGCGCAAAGCACGCTGCCGGAGTCACCTAGTGCAG”, the binding signal was 8340 fluorescence intensity (a.u.).

For “AATCTCAGCTCCACTTGTCTCGTTGCCGACGCGTGTGTTTCGGAGTCACCTAGTGCAG”, the binding signal is 12300 fluorescence intensity (a.u.).

As to “ACCGTTCCAATCGTACCCTGTACCTGCCCAACTTTAAAAACGGAGTCACCTAGTGCAG”, the binding signal is 8660 fluorescence intensity (a.u.). Take “TGCATGGAAATCGCCCGAGGGCCTGTCAATTTCTCACTCTCGGAGTCACCTAGTGCAG”: the binding signal was 8960 fluorescence intensity (a.u.).

For “CATCCTTGGCTCTGATAACTCCCAGGTTCTCATCTCTCACCGGAGTCACCTAGTGCAG”, the binding signal was 10900 fluorescence intensity (a.u.).
